Laboratory results from PubChem BioAssay AID2685 (National Center for Advancing Translational Sciences (NCATS), 2010).
Screen size: about 320,000 compounds; about 2,100 (0.66%) were called active. The shares of active, inactive and inconclusive entries below differ from those in the screen. The call rests on the fitted dose curve; in most records, active means well fitted inhibition curve with a large enough effect in the signal ratio, with a control signal flat (not every such curve was filed as active); inconclusive means small, poorly fitted or top-dose-only effect, or effect the other way, or a change in a side signal; inactive means flat fitted curve, though single readings scatter; the % refers to the signal ratio. A potency beside an inconclusive call is a rough fit, not a confirmed value.

Assay: qHTS Assay for Lipid Storage Modulators in Drosophila S3 Cells
Conditions: BODIPY lipid droplet fluorescence, 18-24 h, cells fed with added oleic acid; lipid storage change, negative = inhibition: at 46.1 µM (top of the series) unless noted
Procedure, shortened: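 Drosophila S3 cells got compounds at several concentrations plus oleic acid (400 uM solution). Laser-scanning cytometry with 488 nm excitation read lipid droplets at 500-530 nm and cells at 575-640 nm. Percent activity was relative to 20 uM Triacsin C.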
On the % scale 0 is the no-effect control and ±100 the full control effect; potency means the concentration at half of the fitted maximal effect.

Row | Compound | Potency | lipid storage change, negative = inhibition | outcome
1 | CCN(CC)c1ccc(/C=N/Nc2nc(C)cc(=O)[nH]2)c(O)c1 | inconclusive: 1.16 µM [falling, full curve, poor fit] |  | 
2 | O=C(NCCc1ccccc1)c1oc2ccccc2c1COc1ccccc1 |  | inconclusive: -109% | 
3 | COc1ccc(C(=O)NC(C)CCc2ccccc2)c(OC)c1 (stereo unspecified) | inconclusive: 32.6 µM [falling, single point] |  | 
4 | COc1ccc(C)cc1Nc1nc(-c2c[nH]c3ccccc23)cs1 |  | inconclusive: -57.9% | 
5 | CCOc1ccc(N2CC(C(=O)Nc3cc(OCC)c(N4CCOCC4)cc3OCC)CC2=O)cc1 (stereo unspecified) |  | inconclusive | 
6 | CCN(CC)CCCNC(=O)c1cc(-c2cccc(Cl)c2)on1 |  | inconclusive: -19.9% | 
7 | Cc1ccc(NC(=S)NNC(=O)C2CC2c2ccc(C)cc2)cc1 (stereo unspecified) |  | inconclusive: -5.73% | 
8 | CSc1nc(C)cc(C)c1S(=O)(=O)c1ccccc1C | inconclusive: 29.1 µM [falling, single point] |  | 
9 | CC(=NCc1ccccc1)C1=C(O)COC1=O |  | inconclusive: -9.4% | 
10 | COc1ccc(CCN2CC(C(=O)NCc3ccc(F)cc3)CC2=O)cc1OC (stereo unspecified) |  | inconclusive: -13% | 
11 | O=C(Nc1ncccc1Cl)c1cccc(F)c1 | inconclusive: 0.184 µM [falling, full curve] |  | 
12 | CC1=C(C(=O)Nc2ccccn2)C(c2ccc(Br)cc2)n2ncnc2N1 (stereo unspecified) |  | inconclusive: 21.7% | 
13 | CCN(CC)S(=O)(=O)c1cccc(-c2nnc(SCC(=O)c3cc(C)n(C4CC4)c3C)o2)c1 |  |  | inactive [at 46.1 µM]
14 | N=C1/C(=C\c2coc3ccc(O)cc3c2=O)C(=O)N=C2SC=CN12 | inconclusive: 29.1 µM [cytotoxic, single point] |  | 
15 | COc1ccccc1NC(=O)CSc1nncn1-c1cccnc1 |  | inconclusive: -1.03% | 
16 | COc1ccc(CCNC(=O)C2CCCN(c3nc4ccccc4s3)C2)cc1OC (stereo unspecified) |  | inconclusive: -42.4% | 
17 | O=C1CCC(C(=O)OCC(=O)C23CC4CC(CC(C4)C2)C3)N1 (stereo unspecified) | inconclusive: 0.0731 µM [falling, full curve, poor fit] |  | 
18 | COCCN(CC(=O)Nc1cccc(C)c1C)C(=O)Cc1sc(C)nc1-c1ccc(F)cc1 |  | inconclusive: -8.75% | 
19 | COc1ccc(CN2CCNC(=O)C2CC(=O)NCCN2CCCCC2=O)c(F)c1 (stereo unspecified) |  | inconclusive: -6.82% | 
20 | Cc1ccc(NC(=O)CN2C(=O)CCSc3ccc(S(=O)(=O)N4CCCC4)cc32)cc1C |  | inconclusive: 21.5% | 
21 | O=C(NCC(=O)N1CCN(c2ccccc2O)CC1)c1ccccc1 |  | inconclusive: 175% | 
22 | CCc1ccccc1NC(=O)N[C@@H](C)C(=O)OC |  | inconclusive: 1.58% | 
23 | C[C@H](NC(=O)c1[nH]cnc1C(=O)Nc1nccs1)c1ccccc1 | inconclusive: 29.1 µM [activator, partial curve, poor fit] |  | 
24 | COC(=O)[C@@H]1C[C@@]2(O)[C@H](O)[C@H](O)[C@H](O)C[C@H]2N1Cc1ccc(C(F)(F)F)cc1 |  | inconclusive: 8.62% | 
25 | CCCOc1ccc(C2C3=C(Nc4nc(N)[nH]c(=O)c42)c2ccccc2C3=O)cc1 (stereo unspecified) |  | inconclusive: 24.8% | 
26 | C=CCn1cccc(C(=O)Nc2cc(OC)cc(OC)c2)c1=O |  | inconclusive: -26.3% | 

Row | Compound | Potency | lipid storage change, negative = inhibition | outcome
27 | Cc1ccc(/C=N/NC(=O)CNC(=O)c2ccc(S(=O)(=O)N(C)C)cc2)o1 |  | inconclusive: -8.86% | 
28 | O=C(N/N=C/c1ccccn1)c1cccc(S(=O)(=O)N2CCCC2)c1 |  | inconclusive: -40.9% | 
29 | CC(=O)Nc1ccc(SCC(=O)N(C)C2CCS(=O)(=O)C2)cc1 (stereo unspecified) | inconclusive: 0.461 µM [falling, partial curve] |  | 
30 | CCC1(CC)C(=O)C(C)(C)C(=O)OC1c1cccs1 (stereo unspecified) | inconclusive: 1.46 µM [falling, partial curve, poor fit] |  | 
31 | CC(Oc1ccc(F)cc1)C(=O)Nc1cccc(-c2nn[nH]n2)c1 (stereo unspecified) |  | inconclusive: -4.42% | 
32 | COc1cc(OCC(N)=O)cc(OC)c1OC |  | inconclusive: -8.17% | 
33 | COc1cc(CO)cc(Br)c1OCC(=O)O | active: 2.06 µM |  | 
34 | O=C(c1ccc(COc2ccc(Cl)cc2)o1)N1CCN(Cc2ccc3c(c2)OCO3)CC1 |  | inconclusive: 118% | 
35 | O=C(Nc1nn[nH]n1)c1cc(-c2ccc(Cl)c(Cl)c2Cl)nc2ccccc12 | inconclusive: 29.1 µM [rising, single point] |  | 
36 | O=S(=O)(Nc1ncccn1)c1ccc(NS(=O)(=O)c2cc(Cl)ccc2Cl)cc1 |  | inconclusive: 2.35% | 
37 | Cc1ccc(/C=N/NC(=O)Cc2ccc(Cl)cc2)c(O)c1 | inconclusive: 29.1 µM [falling, single point] |  | 
38 | O=C(NC(=S)Nc1cccc(S(=O)(=O)NC2=NCCC2)c1)c1cc(-c2ccco2)nc2ccccc12 |  | inconclusive: -18.4% | 
39 | Cc1noc(C)c1NC(=O)NCCN1CCN(Cc2ccccc2)CC1 | inconclusive: 20.6 µM [falling, single point] |  | 
40 | COc1cccc(NC(=O)CN(C)C(=O)c2oc3c(ccc4ccccc43)c2C)c1 | inconclusive: 3.26 µM [activator, partial curve] |  | 
41 | COc1ccc(OC)c(NC(=O)CCC(=O)N(Cc2ccc(OC)c(OC)c2)c2nccs2)c1 | inconclusive: 2.59 µM [falling, full curve, poor fit] |  | 
42 | CCOC(=O)C1CCN(S(=O)(=O)c2c[nH]c(=O)[nH]c2=O)CC1 |  | inconclusive | 
43 | O=C(CNCc1ccc(F)cc1)Nc1ccccc1[N+](=O)[O-] |  | inconclusive: 21.4% | 
44 | CCc1cc(C(=O)NC2CCCN(Cc3ccccc3F)C2)n(C)n1 (stereo unspecified) | inconclusive: 0.731 µM [activator, full curve] |  | 
45 | Cc1ccc(N=C2CSC(=O)N2)cc1 |  | inconclusive: -34.2% | 
46 | Cn1c(SCC(=O)NC2CCCCC2)nnc1-c1cc2ccccc2o1 | inconclusive: 5.8 µM [falling, full curve, poor fit] |  | 
47 | O=C(Nc1ccc(Cl)cc1)C1CCCN(C2=NS(=O)(=O)c3ccccc32)C1 (stereo unspecified) | inconclusive: 18.4 µM [falling, single point] |  | 
48 | O=C(COc1ccccc1F)c1ccc(O)cc1O |  | inconclusive: 32% | 
49 | Cc1ccccc1C(=O)NCCNC(=O)c1cnccn1 |  | inconclusive: 5.4% | 
50 | CN1/C(=C/C=N/NC(=O)c2ccc([N+](=O)[O-])cc2)C(C)(C)c2ccccc21 |  | inconclusive: -17.6% | 
51 | CCSc1nc(-c2ccco2)ccc1C#N | inconclusive: 6.51 µM [falling, single point] |  | 
52 | CCOc1ccc2nc(SCC(=O)c3ccccc3)sc2c1 | inconclusive: 0.231 µM [falling, full curve] |  | 

Row | Compound | Potency | lipid storage change, negative = inhibition | outcome
53 | Cc1ccc(SC(C)C(=O)Nc2ccc(S(=O)(=O)N3CCOCC3)cc2)cc1 (stereo unspecified) |  | inconclusive: -9.7% | 
54 | O=C(c1ccc(Cl)c(F)c1F)N1CCOCC1 | inconclusive: 0.651 µM [falling, full curve, poor fit] |  | 
55 | Cc1ccc(-c2nnc(SCC(=O)Nc3nc4c(s3)CCCC4)n2C)cc1 |  | inconclusive: -5.87% | 
56 | O=C(Cn1nc(-c2ccccc2)ccc1=O)NCc1ccc2c(c1)OCO2 |  | inconclusive: 33.5% | 
57 | O=C(CCCCCN1C(=O)c2cccc3cccc(c23)C1=O)N1CCOCC1 |  | inconclusive: -39.9% | 
58 | CC/C=C/C(=O)N1CC2(CC(c3cccc(NC(=O)COc4ccc(Cl)cc4)c3)=NO2)C[C@H]1C(N)=O (stereo partly specified) | inconclusive: 20.6 µM [falling, single point] |  | 
59 | Cc1ccc(-c2ccc(=O)n(Cc3ccc(F)cc3Cl)n2)cc1 |  | inconclusive: -29.3% | 
60 | N#Cc1ccccc1CSc1nc2ccc(NC(=O)c3ccccc3C(=O)O)cc2s1 |  | inconclusive: 41.3% | 
61 | Cc1cnc(C(=O)OCC(=O)Nc2sc3c(c2C(N)=O)CCCC3)cn1 | inconclusive: 29.1 µM [cytotoxic, single point] |  | 
62 | Cn1nnnc1SCC(=O)N1CCCCC1 |  | inconclusive: -100% | 
63 | CC1(C)CC2c3cccc(C(=O)O)c3C(=O)N2c2c1ccc1ccccc21 (stereo unspecified) |  | inconclusive: 11.8% | 
64 | Nc1c(C(=O)N/N=C/c2ccccc2Cl)oc2nc(-c3ccccc3)cc(-c3ccco3)c12 |  | inconclusive: -25% | 
65 | CN(C)c1ccc(C(O)P(=O)(OCc2ccccc2)c2ccc(N(C)C)cc2)cc1 (stereo unspecified) | inconclusive: 0.146 µM [rising, full curve, poor fit] |  | 
66 | O=C(Nc1ccc(F)cc1)c1sc2cc(C(F)(F)F)cnc2c1-c1cccs1 |  | inconclusive: 0.954% | 
67 | COc1ccc(-n2nc(C(=O)NCC(=O)N3CCC(C(N)=O)CC3)c3ccccc3c2=O)cc1 |  | inconclusive: -3.38% | 
68 | O=C(c1ccc(Cl)c([N+](=O)[O-])c1)N1CCN(c2ccccc2)CC1 | inconclusive: 29.1 µM [falling, single point] |  | 
69 | Cc1cccc(OCc2nnc(SCn3nnc4ccccc4c3=O)o2)c1 | inconclusive: 0.0731 µM [activator, full curve] |  | 
70 | Cc1ccc(-c2[nH]c(-c3ccc(C(=O)O)cc3)nc2-c2ccccc2)cc1 | inconclusive: 1.16 µM [activator, partial curve, poor fit] |  | 
71 | Cc1cc(C)c(C(=O)CSc2nnc(N)s2)c(C)c1 |  | inconclusive: 30% | 
72 | COc1ccc(N(C(=O)C(C)C)S(=O)(=O)c2ccc(Cl)cc2)cc1 |  | inconclusive: -19.4% | 
73 | CCCc1cc(-c2n[nH]c(=S)n2C(C)c2ccccc2)cs1 (stereo unspecified) |  | inconclusive: 233% | 
74 | Cc1nn(-c2ccccc2)c(C)c1NC(=O)COC(=O)[C@@H](NC(=O)c1ccccc1)C(C)C |  | inconclusive | 
75 | CCc1nc2ccccc2n1CCC(=O)O |  | inactive: -5.95% | 
76 | CC1(C)NC(=O)N(CN2C(=O)NC(C)(C)C2=O)C1=O |  | inconclusive: -21.3% | 

Reformatted as tab-separated lines: entries from further up
Row	Compound	Potency	lipid storage change, negative = inhibition	outcome
41	COc1ccc(OC)c(NC(=O)CCC(=O)N(Cc2ccc(OC)c(OC)c2)c2nccs2)c1	inconclusive: 2.59 µM [falling, full curve, poor fit]		
60	N#Cc1ccccc1CSc1nc2ccc(NC(=O)c3ccccc3C(=O)O)cc2s1		inconclusive: 41.3%	
74	Cc1nn(-c2ccccc2)c(C)c1NC(=O)COC(=O)[C@@H](NC(=O)c1ccccc1)C(C)C		inconclusive	
